Experiment: Encapsulation efficiencies, Example 8 (method not given)
Format: physicochemical
Conditions: organosilica particles

**Q.** With Sudan red as the molecule, how does the Encapsulation efficiency read?
**A.** 52%

**Q.** With `C=C(C)[C@H]1CC=C(C)CC1` [limonene] as the molecule, how does the Encapsulation efficiency read?
**A.** 23%

**Q.** Which Encapsulation efficiency does the source give for `CCCCNc1ccc(NCCCC)c2c1C(=O)c1ccccc1C2=O` [Solvent blue 35] here?
**A.** 85%

**Q.** Which Encapsulation efficiency does the source give for `CC1=C(/C=C/C(C)=C/C=C/C(C)=C/CO)C(C)(C)CCC1` [retinol] here?
**A.** 44%

Source: US9017643B2, “Particles comprising a releasable dopant therein” (Australian Nuclear Science and Technology Organisation, priority 2005, dated 2015)
